Measurements taken from patent US4550099A, “Peptides with nerve-regenerating properties” (Akzo N.V., priority 1981, dated 1985).
Part of at least one peptide drawing is inferred or uncertain, most often the ends. Non-standard residues stand in square brackets, D forms with d. Residues, ends and D or L forms follow the SMILES beside them. Met(O2) = CS(=O)(=O)CC[C@H](N)C(=O)O

Test system: crushed right sciatic nerve
Experiment: Sensori-motor function test (hot air foot withdrawal) after sciatic nerve crush
Assay type: in vivo, Albino Wistar Rats
Details: subcutaneous, dissolved in physiological salt solution or as zinc phosphate-peptide suspension

## CS(=O)(=O)CC[C@H](N)C(=O)N[C@@H](CCC(=O)O)C(=O)N[C@@H](Cc1c[nH]cn1)C(=O)N[C@@H](Cc1ccccc1)C(=O)N[C@H](CCCCN)C(=O)N[C@@H](Cc1ccccc1)C(=O)O [H--L--Met(O2)--L--Glu--L--His--L--Phe--D--Lys--L--Phe--OH] (H-[Met(O2)]EHF[dK]F-OH)
1 μg/rat per 48 hours
  stimulation of the recovery of the sensori-motor function (average): 10%
10 μg/rat per 48 hours
  stimulation of the recovery of the sensori-motor function (average): 15%
